These are yes or no findings as the source states them, for the method shown. Binding seen in cells or lysates may run through a third protein. Some entries that bind do so weakly or less than the wild type.
Key:
[1] = target: M3-muscarinic acetylcholine receptor (M3R) (human) (UniProt P20309); assay: co-immunoprecipitation from HASMC lysates
[2] = target: M3-muscarinic acetylcholine receptor (M3R) (human) (UniProt P20309); assay: co-immunoprecipitation in primary HASMCs (FIG. 2A) and SRE-luciferase reporter (FIG. 2B)
[3] = target: M3-muscarinic acetylcholine receptor (M3R) (human) (UniProt P20309); assay: co-immunoprecipitation from primary HASMC lysates: IP with anti-M3R, blot for Gα12; band density diminished after carbachol (10 µM, 1 minute)
[4] = target: Gα12 (human) (UniProt Q03113); assay: co-immunoprecipitation and SRE-luciferase reporter in HASMCs
[5] = target: Gα12 (human) (UniProt Q03113); assay: co-immunoprecipitation from primary HASMC lysates: IP with anti-Gα12, blot for M3R; band density diminished after carbachol (10 µM, 1 minute)

Protein sequences, listed by entry. Tags and fused reporters are not part of them. Lines headed by an entry give the natural chain unless they say otherwise; changes in a name come on top.
UniProt Q03113: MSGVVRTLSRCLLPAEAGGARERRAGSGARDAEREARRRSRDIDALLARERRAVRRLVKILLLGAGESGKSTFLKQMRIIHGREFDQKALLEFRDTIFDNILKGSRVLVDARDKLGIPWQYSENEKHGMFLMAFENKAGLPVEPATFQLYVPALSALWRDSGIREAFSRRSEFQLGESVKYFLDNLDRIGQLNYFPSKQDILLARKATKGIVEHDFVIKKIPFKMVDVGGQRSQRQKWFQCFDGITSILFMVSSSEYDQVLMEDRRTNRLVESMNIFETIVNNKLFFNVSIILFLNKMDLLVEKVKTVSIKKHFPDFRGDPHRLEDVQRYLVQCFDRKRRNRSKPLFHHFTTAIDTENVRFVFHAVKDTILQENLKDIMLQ

| binding [1] | binding [2] | binding [3] | binding [4] | binding [5] | Substance |
| --- | --- | --- | --- | --- | --- |
| binds | binds | binds | – | – | Gα12 (from UniProt Q03113 1-381) |
| – | – | – | binds | binds | M3-muscarinic acetylcholine receptor (M3R) (from UniProt P20309 1-590) |

From patent US20210145828A1
